At least one structure is not confirmed: it was looked up by name or label, or the drawing left a doubt.
Columns and labels:
[1] = tested on: Vesicular stomatitis virus (VSV); type: cell-based
[2] = tested on: JNK; type: cell-based, human

SMILES: Oc1c2ccccc2c2c3c(cccc13)N=N2 [SP600125]
- VSV replication [1]: does not alter
- JNK phosphorylation [2]: reduced

Source: patent US20230390268A1 (priority 2022, published 2023)
